Source: patent US11021755B2, “Compositions and methods for identifying anti cancer, anti-metastatic and anti-stress agents” (THE REGENTS OF THE UNIVERSITY OF CALIFORNIA, priority 2015, dated 2021)
At least one compound was matched to its structure with a doubt left.

System: Slug protein and pY416 SFK in MCF10A cells
Assay: Immunoblots of MCF10A cells stimulated with TGF-b2 and treated with inhibitors or antibody
Assay type: cell-based, human
Conditions: 100 nM dasatinib, short-term incubation
Experimental: FIGS. 21F-G illustrate Immunoblots of MCF10A cells stimulated with TGF-b2 or vehicle control and probed for the indicated proteins. FIG. 21F: Cells were transfected with control (Ctrl) or b3 siRNA and additionally treated with vehicle or proteasome inhibitor (MG132) for 5 hr prior to lysis. FIG. 21G: Cells were treated with 100 nM Src inhibitor (dasatinib) for the indicated length of time prior to lysis. FIG. 21F and FIG. 21G: Data shown are representative of three independent experiments.
Indeed, Slug protein levels are highly regulated through degradation by the proteasome (Kim et al. 2012; Wu et al., 2012). […] Thus, it appears that TGF-β2-stimulated expression of a αvβ3 mediates SFK activation resulting in enhanced Slug protein stability.
For experiments with MCF10A and HMECs, TGF-b2 stimulations were performed with 5 ng/ml TGF-b2 (PeproTech) or 0.1% BSA/PBS (vehicle) for 48 hr prior to lysis. In some experiments, […] of the anti-αvβ3 function-blocking antibody LM609 (Millipore) was added to cells at the same time as TGF-b2 or vehicle addition. For the proteasome inhibitor experiments, 10 mM MG132 (Sigma-Aldrich) or DMSO (vehicle) was added to transfected MCF10A cells 5 hr prior to lysis. Treatment of MCF10A cells with the SFK inhibitor dasatinib (ChemieTek) or DMSO (vehicle) was performed with 100 nM dasatinib for the indicated times prior to harvesting lysates.

Structure (SMILES): Cc1nc(Nc2ncc(C(=O)Nc3c(C)cccc3Cl)s2)cc(N2CCN(CCO)CC2)n1 [dasatinib]
- Slug protein expression: reduced only the TGF-b2-induced Slug protein expression
